# Reference: CN117946265A
# Results are given in words; binding and its absence hold for the method and conditions named. Some binding calls cover weakened binding; strength is not graded here.
# Molecular target: 猴CX3CL1胞外区蛋白 cynoCX3CL1-His (猴 (cyno))
# Assay: ELISA, antigen coated at 1 μg/mL
row,binding,Binder
1,binds,"C032 (antibody, human IgG2, kappa, V domains shown) VH: EVQLQQSGPELVKPGASVKISCKASGYTFTDYYMNWVKQSHGKSLEWIGDINPNNGGTSYNQKFKGKATLTVDKSSSTAYMELRSLTSEDSAVYYCASSGNSYVDYWGQGTTLTVSS VL: DIVMTQSHKFMSTSVGDRVSITCKASQDVSTAVAWYQQKPGQSPKLLIYWASTRHTGVPDRFTGSGSGTDYTLTISSVQAEDLALYYCQQHYSSPYTFGGGTKLEIKR"
2,binds,"C032NA (antibody, human IgG2, kappa, V domains shown) VH: EVQLQQSGPELVKPGASVKISCKASGYTFTDYYMNWVKQSHGKSLEWIGDINPNNAGTSYNQKFKGKATLTVDKSSSTAYMELRSLTSEDSAVYYCASSGNSYVDYWGQGTTLTVSS VL: DIVMTQSHKFMSTSVGDRVSITCKASQDVSTAVAWYQQKPGQSPKLLIYWASTRHTGVPDRFTGSGSGTDYTLTISSVQAEDLALYYCQQHYSSPYTFGGGTKLEIKR"
3,binds,"C032QG (antibody, human IgG2, kappa, V domains shown) VH: EVQLQQSGPELVKPGASVKISCKASGYTFTDYYMNWVKQSHGKSLEWIGDINPNQGGTSYNQKFKGKATLTVDKSSSTAYMELRSLTSEDSAVYYCASSGNSYVDYWGQGTTLTVSS VL: DIVMTQSHKFMSTSVGDRVSITCKASQDVSTAVAWYQQKPGQSPKLLIYWASTRHTGVPDRFTGSGSGTDYTLTISSVQAEDLALYYCQQHYSSPYTFGGGTKLEIKR"
4,binds,"mAb032 (antibody, V domains shown) VH: EVQLQQSGPELVKPGASVKISCKASGYTFTDYYMNWVKQSHGKSLEWIGDINPNNGGTSYNQKFKGKATLTVDKSSSTAYMELRSLTSEDSAVYYCASSGNSYVDYWGQGTTLTVSS VL: DIVMTQSHKFMSTSVGDRVSITCKASQDVSTAVAWYQQKPGQSPKLLIYWASTRHTGVPDRFTGSGSGTDYTLTISSVQAEDLALYYCQQHYSSPYTFGGGTKLEIK"
